Reference: US20210395725A1

Tests used:
[1] = target: human placental laminin (human); assay: flow cytometry, HEK293-6E cell display, 500 nM biotinylated human laminin
[2] = target: human placental laminin (human); assay: ELISA, biotinylated laminin on streptavidin plate, soluble His-tagged protein

- binding [1]: binds
- binding [2]: binds
B1: laminin-binding CD81 LEL mutant L3B_LU1_2 (designed binder)
chain: FVNKDQIAKDVKQFYDQCLKYACKQGDWENAKACVKTFHETLDCCGSSTVANMTRCVLPANLCPSGSNIISNLFKEDCHQKIDDLFSGK

- binding [1]: binds
- binding [2]: binds
B2: laminin-binding CD81 LEL mutant L2A_LU1 (designed binder)
chain: FVNKDQIAKDVKQFYDQALRECCNTFDANNACAVVKTFHETLDCCGSSTTHSSTGCVLFFNLCPSGSNIISNLFKEDCHQKIDDLFSGK

- binding [1]: binds
B3: laminin-binding CD81 LEL mutant L3A_LU1 (designed binder)
chain: FVNKDQIAKDVKQFYDQCLLWACSKRYKYNAKACVKTFHETLDCCGSSTMGNLTECVLIENLCPSGSNIISNLFKEDCHQKIDDLFSGK

Results are given in words; binding and its absence hold for the method and conditions named. A result given as binding can be weak or reduced; the word gives no strength. Each block holds one binder with its values, some of them ahead of it.
